In PMC8219378, “A putative structural mechanism underlying the antithetic effect of homologous RND1 and RhoD GTPases in mammalian plexin regulation” (eLife, 2021):
These are yes or no findings as the source states them, for the method shown.

Biological target: mouse plexin B2 RBD (Rho-GTPase-binding domain), as found in the crystal (mouse) (UniProt B2RXS4)
Assay: crystal structure; plexin B2 (1274-1842) and GMP-PNP-loaded RhoD mixed at 1:1 molar ratio, 6 mg/mL; crystals grown for over a month at 20 C in 0.2 M MgCl2, 22% PEG3350, 100 mM MIB pH 6.8; molecular replacement, 3.1 A; two RhoD and two RBD in the asymmetric unit; both purified

B1: mouse plexin B2 RBD (Rho-GTPase-binding domain), as found in the crystal (domain or fragment, UniProt B2RXS4 1463-1565, looked up)
chain: EYAPLTVSVIVQDEGIDAIPVKVLNCDTISQVKEKIIDQVYRTQPCSCWPKPDSVVLEWRPGSTAQILSDLDLTSQREGRWKRINTLMHYNVRDGATLILSKV
notes: Plexin B2, mouse; Expressed as the intracellular region without the juxtamembrane region (residues 1274-1842); it degraded during crystallization and the crystal held only the RBD, built as residues 1463-1509 and 1510-1565; The range is that of the residues modelled in the structure; In the crystal two RBD chains form a domain-swapped dimer (swap between residues 1509 and 1510), which the authors …
With B1 the binding was “no binding”.
